Test results reported in patent publication US20140275226.
For some assays here: No signal at the amounts used counts as a negative. For some assays here: For at least one entry, the source does not settle the construct or the ends of the probe. For some assays here: Where cells or extracts were used, other partners may take part.

Chains of the proteins cited; added tags and fusions are not shown. Chains listed by the source or under a name are the forms on record and can include a tag or linker.
Factor VIIa / factor VII (Homo sapiens), one chain, as listed by the source, chain 1 of 2: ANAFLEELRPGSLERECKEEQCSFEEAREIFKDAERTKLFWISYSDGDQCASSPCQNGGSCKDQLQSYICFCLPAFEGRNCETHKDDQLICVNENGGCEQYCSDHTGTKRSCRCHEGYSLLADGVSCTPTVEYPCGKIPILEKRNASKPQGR
Factor IXa / factor IX (Homo sapiens), one chain, as listed by the source, chain 1 of 2: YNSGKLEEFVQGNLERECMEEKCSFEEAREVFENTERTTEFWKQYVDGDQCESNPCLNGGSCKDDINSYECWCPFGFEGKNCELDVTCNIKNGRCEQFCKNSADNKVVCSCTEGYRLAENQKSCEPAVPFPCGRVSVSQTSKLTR
Factor Xa / factor X (Homo sapiens), one chain, as listed by the source, chain 2 of 2: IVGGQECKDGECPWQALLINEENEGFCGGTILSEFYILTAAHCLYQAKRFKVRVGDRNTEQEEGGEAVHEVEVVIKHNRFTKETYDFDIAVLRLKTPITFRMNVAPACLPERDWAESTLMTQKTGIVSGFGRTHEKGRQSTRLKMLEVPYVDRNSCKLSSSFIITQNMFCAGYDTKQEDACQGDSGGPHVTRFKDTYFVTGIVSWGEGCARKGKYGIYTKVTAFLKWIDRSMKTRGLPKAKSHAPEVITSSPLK
Factor IXa / factor IX (Homo sapiens), one chain, as listed by the source, chain 2 of 2: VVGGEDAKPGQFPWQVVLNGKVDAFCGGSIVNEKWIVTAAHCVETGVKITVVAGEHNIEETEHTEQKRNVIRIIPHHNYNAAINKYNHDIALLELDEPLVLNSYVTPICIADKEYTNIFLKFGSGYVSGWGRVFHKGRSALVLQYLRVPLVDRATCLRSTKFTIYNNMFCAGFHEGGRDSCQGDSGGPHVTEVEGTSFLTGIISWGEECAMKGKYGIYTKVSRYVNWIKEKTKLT
Factor Xa / factor X (Homo sapiens), one chain, as listed by the source, chain 1 of 2: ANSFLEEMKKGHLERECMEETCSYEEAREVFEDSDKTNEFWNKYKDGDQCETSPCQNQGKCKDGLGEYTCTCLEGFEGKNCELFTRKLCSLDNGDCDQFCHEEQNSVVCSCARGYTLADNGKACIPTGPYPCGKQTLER
Factor VIIa / factor VII (Homo sapiens), one chain, as listed by the source, chain 2 of 2: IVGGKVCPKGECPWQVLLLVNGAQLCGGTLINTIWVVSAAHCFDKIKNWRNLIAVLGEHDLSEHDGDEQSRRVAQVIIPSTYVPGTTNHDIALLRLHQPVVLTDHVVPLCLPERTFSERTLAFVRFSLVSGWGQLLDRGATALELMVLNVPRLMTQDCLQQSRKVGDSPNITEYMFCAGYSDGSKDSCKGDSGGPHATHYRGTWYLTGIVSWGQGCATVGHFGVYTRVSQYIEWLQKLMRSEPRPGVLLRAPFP

Columns and labels:
[1] = system: Factor IXa / factor IX (Homo sapiens); experiment: inhibition of the protein; settings: 2'-F C and U (all pyrimidines); 120 nM, 1 pM TF: no appreciable effect on thrombin generation (peak 219.57 nM vs 221.56 no aptamer); protein in an extract; variant of 9.3T
[2] = system: Factor Xa / factor X (Homo sapiens); experiment: inhibition of the protein; settings: 2'-F C and U (all pyrimidines); 1000 nM, 5 pM TF: no appreciable effect on thrombin generation (peak 391.12 nM vs 325.43 no aptamer); protein in an extract; variant of 11F7T
[3] = target: Prothrombin (factor II) (Homo sapiens) (UniProt P00734); experiment: binding assay; settings: 2'-F C and U (all pyrimidines), CITED Bompiani 2012, apparent Kd, protein in an extract
[4] = target: Prothrombin (factor II) (Homo sapiens) (UniProt P00734); experiment: inhibition of the protein; settings: 2'-F C and U (all pyrimidines); 5000 nM, 5 pM TF: no appreciable effect on thrombin generation (peak 312.12 nM vs 325.43 no aptamer); protein in an extract; variant of R9D-14T (R9D-14T7)
[5] = system: Factor VIIa / factor VII (Homo sapiens); experiment: inhibition of the protein; settings: 2'-F C and U (all pyrimidines); 30 nM, 5 pM TF: no appreciable effect on thrombin generation (peak 357.63 nM vs 325.43 no aptamer); protein in an extract; variant of 7S-1

AUGGGGACUGUGCCGCGUAAUGCUGCCUCCCCAU [9.3Tmut]
functional effect of the aptamer [1]: not active

GAGAGCCCCAGCGAGAUAAUACUUGUACCCGCUCUU [11F7Tmut]
functional effect of the aptamer [2]: not active

GGCGGUCGAUCACACAGUUCAAACGUAAUAAGCCAAUGUACGAGGCAGACGACUCGCC [R9D-14T (R9D-14T7)]
Kd [3]: 0.01 µM

GGCGGUCGAUCACACAGUUCAAACGUAAUAAGCCGGCGUACGAGGCAGACGACUCGCC [R9D-14Tmut]
functional effect of the aptamer [4]: not active

GGGAGGACGAUGCGGACUCCUCCAAGCGACCAACAUCGGUCUUAUUUCAGAUCAACAGACGACUCGCUGAGGAUCCGAGA [7S-1mut]
functional effect of the aptamer [5]: not active
